The source of these data is PMC10829383.

Protein sequences, listed by entry. Tags and fused reporters are not part of them.
UniProt P03372, whole entry: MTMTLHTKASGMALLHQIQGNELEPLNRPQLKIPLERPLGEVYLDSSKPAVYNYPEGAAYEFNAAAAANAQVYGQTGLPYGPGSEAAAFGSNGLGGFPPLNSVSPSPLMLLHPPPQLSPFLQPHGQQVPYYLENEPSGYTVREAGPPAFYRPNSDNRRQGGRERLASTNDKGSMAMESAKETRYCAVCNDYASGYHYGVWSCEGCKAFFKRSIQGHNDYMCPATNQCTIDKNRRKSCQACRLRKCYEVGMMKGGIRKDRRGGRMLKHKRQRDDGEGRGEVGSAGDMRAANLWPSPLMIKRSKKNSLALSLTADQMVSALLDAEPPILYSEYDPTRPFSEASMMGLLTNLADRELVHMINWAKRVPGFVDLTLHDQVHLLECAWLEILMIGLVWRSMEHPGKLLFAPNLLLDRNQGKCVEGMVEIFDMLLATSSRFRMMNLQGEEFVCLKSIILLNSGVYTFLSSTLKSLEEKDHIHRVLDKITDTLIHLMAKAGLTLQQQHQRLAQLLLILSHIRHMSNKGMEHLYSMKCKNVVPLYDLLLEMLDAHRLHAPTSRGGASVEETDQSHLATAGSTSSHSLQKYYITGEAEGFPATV

This data set deals with ERα (UniProt P03372). The data set can be described thus: EMSA supershift. The following applies: anti-ERα antibody, nuclear extract; EMSA supershift: 4 µg nuclear extract and 1 µg anti-ERα preincubated in binding buffer 20 min at ambient temperature; buffer composition, salt and pH not given; protein in an extract; label: biotin. (In EMSA bound probe runs differently from free probe, usually more slowly.)

For at least one entry, the source does not settle the construct or the ends of the probe. Results from cells or extracts need not show a direct contact.

For “GACCGGGCCCAGTGACCCGCGGGC (double strand) [lncRNA NCALD promoter ERα site probe]”, the binding result was “binds”.
